From publication PMC9071424
No constants are given. Whether binding was seen depends on the method and setting. Some binding calls cover weakened binding; strength is not graded here.

The chains behind the UniProt entries cited, without tags or fusion partners. Residues count along the entry.
UniProt Q13426: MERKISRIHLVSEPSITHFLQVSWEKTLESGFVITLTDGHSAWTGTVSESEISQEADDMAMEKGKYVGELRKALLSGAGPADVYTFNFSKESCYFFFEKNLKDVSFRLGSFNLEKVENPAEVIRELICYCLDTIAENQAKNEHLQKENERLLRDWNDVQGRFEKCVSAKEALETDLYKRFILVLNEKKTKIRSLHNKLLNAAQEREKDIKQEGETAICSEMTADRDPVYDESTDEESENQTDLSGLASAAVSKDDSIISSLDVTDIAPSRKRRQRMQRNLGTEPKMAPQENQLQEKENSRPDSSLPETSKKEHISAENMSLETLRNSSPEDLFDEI
UniProt P55854, residues 1-92: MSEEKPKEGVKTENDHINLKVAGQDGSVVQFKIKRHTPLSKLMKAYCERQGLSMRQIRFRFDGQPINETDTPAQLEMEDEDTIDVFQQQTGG

Target: 6×His-tagged full-length XRCC4 (human) (UniProt Q13426)
Test: SPR; ProteOn XPR36; recombinant XRCC4-6×His (or variant) amine-coupled on a GLC chip; SUMO or ubiquitin topologies or XLF flowed over; 100 mM NaCl, 10 mM HEPES pH 7.0, 0.1% Igepal; 25°C; both purified

How did the binding turn out when “PolySUMO3 chains (from UniProt P55854 1-92) (complex)” was run?
The binding was “binds”.
